In publication PMC9867282:
No constants are given. Whether binding was seen depends on the method and setting. Binding seen in cells or lysates may run through a third protein. Here binding means that the protein was enriched with, or labelled near, the bait; the list need not be complete. Tags and fused reporters may be left off the sequences shown.

T1: FLAG-BirA*-CCP6 (cytosolic carboxypeptidase 6 fused to FLAG-tagged BirA*) (human) (UniProt Q5VU57)
T1 sequence: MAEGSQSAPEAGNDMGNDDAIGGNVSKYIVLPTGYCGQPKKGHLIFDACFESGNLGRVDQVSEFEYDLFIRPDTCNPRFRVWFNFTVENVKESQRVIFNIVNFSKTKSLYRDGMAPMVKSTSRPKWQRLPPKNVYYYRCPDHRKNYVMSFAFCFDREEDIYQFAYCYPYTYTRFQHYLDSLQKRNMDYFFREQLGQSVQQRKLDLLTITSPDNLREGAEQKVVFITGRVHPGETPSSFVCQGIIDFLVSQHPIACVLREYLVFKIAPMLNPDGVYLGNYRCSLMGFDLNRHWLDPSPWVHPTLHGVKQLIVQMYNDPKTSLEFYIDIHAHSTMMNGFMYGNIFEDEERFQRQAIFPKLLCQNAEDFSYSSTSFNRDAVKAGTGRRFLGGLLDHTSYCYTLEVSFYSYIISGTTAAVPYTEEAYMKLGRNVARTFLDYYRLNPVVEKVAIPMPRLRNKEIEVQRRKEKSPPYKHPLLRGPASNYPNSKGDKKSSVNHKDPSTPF

B1: nonsense-mediated mRNA decay factor SMG7 (protein, UniProt Q92540 1-1137)
chain: MSLQSAQYLRQAEVLKADMTDSKLGPAEVWTSRQALQDLYQKMLVTDLEYALDKKVEQDLWNHAFKNQITTLQGQAKNRANPNRSEVQANLSLFLEAASGFYTQLLQELCTVFNVDLPCRVKSSQLGIISNKQTHTSAIVKPQSSSCSYICQHCLVHLGDIARYRNQTSQAESYYRHAAQLVPSNGQPYNQLAILASSKGDHLTTIFYYCRSIAVKFPFPAASTNLQKALSKALESRDEVKTKWGVSDFIKAFIKFHGHVYLSKSLEKLSPLREKLEEQFKRLLFQKAFNSQQLVHVTVINLFQLHHLRDFSNETEQHTYSQDEQLCWTQLLALFMSFLGILCKCPLQNESQEESYNAYPLPAVKVSMDWLRLRPRVFQEAVVDERQYIWPWLISLLNSFHPHEEDLSSISATPLPEEFELQGFLALRPSFRNLDFSKGHQGITGDKEGQQRRIRQQRLISIGKWIADNQPRLIQCENEVGKLLFITEIPELILEDPSEAKENLILQETSVIESLAADGSPGLKSVLSTSRNLSNNCDTGEKPVVTFKENIKTREVNRDQGRSFPPKEVRRDYSKGITVTKNDGKKDNNKRKTETKKCTLEKLQETGKQNVAVQVKSQTELRKTPVSEARKTPVTQTPTQASNSQFIPIHHPGAFPPLPSRPGFPPPTYVIPPPVAFSMGSGYTFPAGVSVPGTFLQPTAHSPAGNQVQAGKQSHIPYSQQRPSGPGPMNQGPQQSQPPSQQPLTSLPAQPTAQSTSQLQVQALTQQQQSPTKAVPALGKSPPHHSGFQQYQQADASKQLWNPPQVQGPLGKIMPVKQPYYLQTQDPIKLFEPSLQPPVMQQQPLEKKMKPFPMEPYNHNPSEVKVPEFYWDSSYSMADNRSVMAQQANIDRRGKRSPGVFRPEQDPVPRMPFEKSLLEKPSELMSHSSSFLSLTGFSLNQERYPNNSMFNEVYGKNLTSSSKAELSPSMAPQETSLYSLFEGTPWSPSLPASSDHSTPASQSPHSSNPSSLPSSPPTHNHNSVPFSNFGPIGTPDNRDRRTADRWKTDKPAMGGFGIDYLSATSSSESSWHQASTPSGTWTGHGPSMEDSSAVLMESLKSIWSSSMMHPGPSALEQLLMQQKQKQQRGQGTMNPPH
B2: KIAA0753 (protein, UniProt Q2KHM9 1-967)
chain: MGPGQPASTCVHLAPRTQLDGRSDPKVLQTQNQLQFNRNVPTHSSNLAIRYSCPHAIRIEKLKHSYNESYHCKDADCRVGPDLGSSVSFSVISQERLSYAVHLARRDVKRRQFEKHIKEHHLRSQPQSSQKCGHTKYKIPDHRVERKESKSQAACQCSHQPSKVEISSSGAKVYLYSSHPGQSDLTVPNSPPTHDPGLQPHPRIGDHKNISEQKSLLEVQRLQKELSSCIHKIEEVTKKDRLEEALDPDEERRIRIRRQEQAARSARMLYVLQQQVKEIQEELDKLSPHKIKHTKKSWAMSKLAAAHRGAIRALQMFVTQFTDRGEHPLPARCKELGSLIRQLSLCSVKLDADPSVPDVVIDILQQIEALESLLEKKLSPKKVKKCFSEIRSRFPIGSQKALERWPSTSPKGERRPLTAKDTFPQETSRPSVAKQLLADKYQPDTELPETQRLQSELDVLDADIVLEEGPFILDQSASFKDEVLAVAKTKAGKKKPVTENVPFRKKDTLAPARQQGLRKAERGRQSQPHSKSRVQQTTVSSRLKMNRQPVKDRKAPWIPPNPTSPPASPKCAAWLKVKTSPRDATKEPLQQEDPQEESHLTGAVEHEAARLAWLDAETSKRLKELEELKAKEIDSMQKQRLDWLDAETSRRTKELNELKAEEMYRLQQLSVSATHLADKVEEAVLDRLKPLLVKAQRVNSTTEANIHLKDGSSVNTAKAQPAQEVAAVDFESNNIRQLDDFLEDCASELWAVTHAKILGSETLATVEDSKDSPDLEIMMRRMEEMEKYQESVRQRYNKIAYADPRLWMQEENNDQKISAISEKPLSPHPIRITKTVDRKDPAVNIMLERPCNGNSLDESVGTEEGSEKREAPLLSLAEDSQQKEGRAPLFVPPGMQHSIGDYCSRFEQYLRIISHEAVGSFNPWLIAESFSEELVDEALGAVAAELQDMCEDYAEAVFTSEFLEAAT
B3: KIF7 (protein, UniProt Q2M1P5 1-1343)
chain: MGLEAQRLPGAEEAPVRVALRVRPLLPKELLHGHQSCLQVEPGLGRVTLGRDRHFGFHVVLAEDAGQEAVYQACVQPLLEAFFEGFNATVFAYGQTGSGKTYTMGEASVASLLEDEQGIVPRAMAEAFKLIDENDLLDCLVHVSYLEVYKEEFRDLLEVGTASRDIQLREDERGNVVLCGVKEVDVEGLDEVLSLLEMGNAARHTGATHLNHLSSRSHTVFTVTLEQRGRAPSRLPRPAPGQLLVSKFHFVDLAGSERVLKTGSTGERLKESIQINSSLLALGNVISALGDPQRRGSHIPYRDSKITRILKDSLGGNAKTVMIACVSPSSSDFDETLNTLNYASRAQNIRNRATVNWRPEAERPPEETASGARGPPRHRSETRIIHRGRRAPGPATASAAAAMRLGAECARYRACTDAAYSLLRELQAEPGLPGAAARKVRDWLCAVEGERSALSSASGPDSGIESASVEDQAAQGAGGRKEDEGAQQLLTLQNQVARLEEENRDFLAALEDAMEQYKLQSDRLREQQEEMVELRLRLELVRPGWGGPRLLNGLPPGSFVPRPHTAPLGGAHAHVLGMVPPACLPGDEVGSEQRGEQVTNGREAGAELLTEVNRLGSGSSAASEEEEEEEEPPRRTLHLRRNRISNCSQRAGARPGSLPERKGPELCLEELDAAIPGSRAVGGSKARVQARQVPPATASEWRLAQAQQKIRELAINIRMKEELIGELVRTGKAAQALNRQHSQRIRELEQEAEQVRAELSEGQRQLRELEGKELQDAGERSRLQEFRRRVAAAQSQVQVLKEKKQATERLVSLSAQSEKRLQELERNVQLMRQQQGQLQRRLREETEQKRRLEAEMSKRQHRVKELELKHEQQQKILKIKTEEIAAFQRKRRSGSNGSVVSLEQQQKIEEQKKWLDQEMEKVLQQRRALEELGEELHKREAILAKKEALMQEKTGLESKRLRSSQALNEDIVRVSSRLEHLEKELSEKSGQLRQGSAQSQQQIRGEIDSLRQEKDSLLKQRLEIDGKLRQGSLLSPEEERTLFQLDEAIEALDAAIEYKNEAITCRQRVLRASASLLSQCEMNLMAKLSYLSSSETRALLCKYFDKVVTLREEQHQQQIAFSELEMQLEEQQRLVYWLEVALERQRLEMDRQLTLQQKEHEQNMQLLLQQSRDHLGEGLADSRRQYEARIQALEKELGRYMWINQELKQKLGGVNAVGHSRGGEKRSLCSEGRQAPGNEDELHLAPELLWLSPLTEGAPRTREETRDLVHAPLPLTWKRSSLCGEEQGSPEELRQREAAEPLVGRVLPVGEAGLPWNFGPLSKPRRELRRASPGMIDVRKNPL
B4: CCDC14 (protein, UniProt Q49A88 1-953)
chain: MKRGIRRDPFRKRKLGGRAKKVREPTAVNSFYREASLPSVWASLRRREMVRSGARPGQVLSSGRHTGPAKLTNGKKATYLRKIPRFNADSGYSIHSDSESQAETVHGLDGCASLLRDILRNEDSGSETAYLENRSNSRPLESKRYGSKKKRHEKHTIPLVVQKETSSSDNKKQIPNEASARSERDTSDLEQNWSLQDHYRMYSPIIYQALCEHVQTQMSLMNDLTSKNIPNGIPAVPCHAPSHSESQATPHSSYGLCTSTPVWSLQRPPCPPKVHSEVQTDGNSQFASQGKTVSATCTDVLRNSFNTSPGVPCSLPKTDISAIPTLQQLGLVNGILPQQGIHKETDLLKCIQTYLSLFRSHGKETHLDSQTHRSPTQSQPAFLATNEEKCAREQIREATSERKDLNIHVRDTKTVKDVQKAKNVNKTAEKVRIIKYLLGELKALVAEQEDSEIQRLITEMEACISVLPTVSGNTDIQVEIALAMQPLRSENAQLRRQLRILNQQLREQQKTQKPSGAVDCNLELFSLQSLNMSLQNQLEESLKSQELLQSKNEELLKVIENQKDENKKFSSIFKDKDQTILENKQQYDIEITRIKIELEEALVNVKSSQFKLETAEKENQILGITLRQRDAEVTRLRELTRTLQTSMAKLLSDLSVDSARCKPGNNLTKSLLNIHDKQLQHDPAPAHTSIMSYLNKLETNYSFTHSEPLSTIKNEETIEPDKTYENVLSSRGPQNSNTRGMEEASAPGIISALSKQDSDEGSETMALIEDEHNLDNTIYIPFARSTPEKKSPLSKRLSPQPQIRAATTQLVSNSGLAVSGKENKLCTPVICSSSTKEAEDAPEKLSRASDMKDTQLLKKIKEAIGKIPAATKEPEEQTACHGPSGCLSNSLQVKGNTVCDGSVFTSDLMSDWSISSFSTFTSRDEQDFRNGLAALDANIARLQKSLRTGLLEK
B5: polyglutamylase TTLL5 (enzyme, UniProt Q6EMB2 1-1281)
chain: MPIVMARDLEETASSSEDEEVISQEDHPCIMWTGGCRRIPVLVFHADAILTKDNNIRVIGERYHLSYKIVRTDSRLVRSILTAHGFHEVHPSSTDYNLMWTGSHLKPFLLRTLSEAQKVNHFPRSYELTRKDRLYKNIIRMQHTHGFKAFHILPQTFLLPAEYAEFCNSYSKDRGPWIVKPVASSRGRGVYLINNPNQISLEENILVSRYINNPLLIDDFKFDVRLYVLVTSYDPLVIYLYEEGLARFATVRYDQGAKNIRNQFMHLTNYSVNKKSGDYVSCDDPEVEDYGNKWSMSAMLRYLKQEGRDTTALMAHVEDLIIKTIISAELAIATACKTFVPHRSSCFELYGFDVLIDSTLKPWLLEVNLSPSLACDAPLDLKIKASMISDMFTVVGFVCQDPAQRASTRPIYPTFESSRRNPFQKPQRCRPLSASDAEMKNLVGSAREKGPGKLGGSVLGLSMEEIKVLRRVKEENDRRGGFIRIFPTSETWEIYGSYLEHKTSMNYMLATRLFQDRMTADGAPELKIESLNSKAKLHAALYERKLLSLEVRKRRRRSSRLRAMRPKYPVITQPAEMNVKTETESEEEEEVALDNEDEEQEASQEESAGFLRENQAKYTPSLTALVENTPKENSMKVREWNNKGGHCCKLETQELEPKFNLMQILQDNGNLSKMQARIAFSAYLQHVQIRLMKDSGGQTFSASWAAKEDEQMELVVRFLKRASNNLQHSLRMVLPSRRLALLERRRILAHQLGDFIIVYNKETEQMAEKKSKKKVEEEEEDGVNMENFQEFIRQASEAELEEVLTFYTQKNKSASVFLGTHSKISKNNNNYSDSGAKGDHPETIMEEVKIKPPKQQQTTEIHSDKLSRFTTSAEKEAKLVYSNSSSGPTATLQKIPNTHLSSVTTSDLSPGPCHHSSLSQIPSAIPSMPHQPTILLNTVSASASPCLHPGAQNIPSPTGLPRCRSGSHTIGPFSSFQSAAHIYSQKLSRPSSAKAGSCYLNKHHSGIAKTQKEGEDASLYSKRYNQSMVTAELQRLAEKQAARQYSPSSHINLLTQQVTNLNLATGIINRSSASAPPTLRPIISPSGPTWSTQSDPQAPENHSSSPGSRSLQTGGFAWEGEVENNVYSQATGVVPQHKYHPTAGSYQLQFALQQLEQQKLQSRQLLDQSRARHQAIFGSQTLPNSNLWTMNNGAGCRISSATASGQKPTTLPQKVVPPPSSCASLVPKPPPNHEQVLRRATSQKASKGSSAEGQLNGLQSSLNPAAFVPITSSTDPAHTKI

target: T1, FLAG-BirA*-CCP6 (cytosolic carboxypeptidase 6 fused to FLAG-tagged BirA*) (human); test: proximity labelling; BioID in Flp-In T-REX 293 stable cell pools expressing BirA*-CCP6; tetracycline 1 ug/mL 24 h, then 50 uM biotin 24 h; lysis in 2% SDS, 8 M urea; streptavidin agarose, on-bead trypsin, LC-MS/MS, LFQ; enrichment against GFP-BirA* (t-test, FDR 0.05); three biological replicates

binding, binds:
B1, B2, B3, B4, B5
